Assay results reported in patent US20230126310A1 (priority 2020, published 2023).
pIC50: −log10 of the molar value. At least one structure is not confirmed: it was looked up by name or label, or the drawing left a doubt. Some entries share one result that the patent states for a list of compounds.

System: SARS-CoV-2

SMILES | identified in the screening (initial screening) | pIC50 (listed as Tyrphostin (AG 879))
CCC(CC)COC(=O)[C@H](C)N[P@](=O)(OC[C@H]1O[C@@](C#N)(c2ccc3c(N)ncnn23)[C@H](O)[C@@H]1O)Oc1ccccc1 [remdesivir] | identified in the screening | 
CC(C)(C)c1cc(/C=C(\C#N)C(N)=S)cc(C(C)(C)C)c1O [Tyrphostin AG 879 (AG 879), Tyrphostin AG 879] |  | > 6.00
